No constants are given. Whether binding was seen depends on the method and setting. In cells and extracts the contact can be indirect. A yes stands for co-enrichment or nearness to the bait. Other partners may have been found.
Molecular target: Copine 7 (CPNE7), in CPNE7-OE cells (UniProt Q9UBL6)
Assay: affinity purification with mass spectrometry; Co-IP from CPNE7-OE cells compared with control; proteins separated in SDS-PAGE gel, cut out and sequenced by liquid mass spectrometry (PTM Biolabs)

Protein sequences, listed by entry. Tags and fused reporters are not part of them.
UniProt Q9UBL6: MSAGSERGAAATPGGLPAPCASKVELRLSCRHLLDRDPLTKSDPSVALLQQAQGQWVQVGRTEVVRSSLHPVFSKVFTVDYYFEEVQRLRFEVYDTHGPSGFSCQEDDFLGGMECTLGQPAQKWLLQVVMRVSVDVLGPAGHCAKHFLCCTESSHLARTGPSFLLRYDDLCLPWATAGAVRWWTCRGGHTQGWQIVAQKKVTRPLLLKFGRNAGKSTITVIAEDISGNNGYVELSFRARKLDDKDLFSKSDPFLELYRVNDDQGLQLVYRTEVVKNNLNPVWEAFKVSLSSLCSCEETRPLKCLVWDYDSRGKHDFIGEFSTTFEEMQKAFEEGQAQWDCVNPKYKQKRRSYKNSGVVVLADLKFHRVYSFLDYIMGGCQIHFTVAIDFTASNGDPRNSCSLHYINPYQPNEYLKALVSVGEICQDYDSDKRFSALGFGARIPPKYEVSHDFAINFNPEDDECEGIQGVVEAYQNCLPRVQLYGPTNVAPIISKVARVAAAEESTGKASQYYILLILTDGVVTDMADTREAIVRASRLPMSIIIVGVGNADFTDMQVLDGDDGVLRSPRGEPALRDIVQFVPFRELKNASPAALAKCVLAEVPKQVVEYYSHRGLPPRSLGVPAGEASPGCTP
UniProt P14618: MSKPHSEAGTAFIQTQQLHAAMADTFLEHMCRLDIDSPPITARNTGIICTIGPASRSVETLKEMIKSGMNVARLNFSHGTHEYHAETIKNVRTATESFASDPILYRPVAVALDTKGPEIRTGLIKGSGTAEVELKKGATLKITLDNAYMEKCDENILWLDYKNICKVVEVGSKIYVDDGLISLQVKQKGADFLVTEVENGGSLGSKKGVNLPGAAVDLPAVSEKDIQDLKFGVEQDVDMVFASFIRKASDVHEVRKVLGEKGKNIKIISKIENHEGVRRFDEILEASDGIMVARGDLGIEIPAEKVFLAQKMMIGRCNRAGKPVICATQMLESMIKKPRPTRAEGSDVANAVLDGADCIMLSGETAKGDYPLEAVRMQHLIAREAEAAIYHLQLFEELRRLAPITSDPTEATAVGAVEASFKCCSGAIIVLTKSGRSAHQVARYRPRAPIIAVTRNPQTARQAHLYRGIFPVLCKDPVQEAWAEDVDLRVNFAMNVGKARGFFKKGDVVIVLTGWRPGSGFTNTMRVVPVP

binding: binds
Substance: Pyruvate kinase muscle protein (PKM2), found in the co-IP proteomics of CPNE7-OE cells (from UniProt P14618 1-531)

Reference: PMC10352775
